{"source": "PubChem BioAssay AID1224828 (NIAID, 2016)", "test": "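Knock-downs that increase or decrease LPS-induced p65 nuclear translocation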 (primary screen)", "cell system": "mouse RAW264.7 G9 macrophage reporter cells (GFP-p65, Tnf promoter-mCherry)", "reagents": "siRNA pool against mouse genes, 100 nM", "duration": "2 days siRNA transfection, then 40 min LPS before fixation", "challenge": "LPS (Salmonella minnesota R595) at 10 ng/ml", "measurement": "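Imaged p65 nuclear translocation ratio, normalised to the plate median, converted to robust z-scores and averaged across two replicates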", "reading the numbers": "p65 translocation robust z-score: higher = more nuclear NF-kappaB p65 after LPS than the plate median; nuclear/cytoplasmic p65 ratio: higher = more nuclear NF-kappaB p65", "hit rule": "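Called active when z exceeds 3.3 or falls under -1.56 (median of Tlr4 controls), giving activity score of at least 50; no calls for control wells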", "meaning of the calls": "active = hit (p65 shift raised or lowered); inactive = no clear change", "note": "In all, the deposit lists about 17,000 reagents; below is a random part of them. 762 of all reagents (4.5%) count as active. 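Active calls include both raised and lowered p65 entry, mostly lowered; wells with fewer than 50 cells lack a z-score.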 The raw values are shown without normalisation. Unmarked entries are inactive."}
The first 2 records, to show the layout:
{"gene": "Or9g19", "p65 translocation robust z-score": -0.53, "nuclear/cytoplasmic p65 ratio, rep 1": 1.66, "nuclear/cytoplasmic p65 ratio, rep 2": 1.43, "low cell count flag": "enough cells to score"}
{"gene": "Aida", "nuclear/cytoplasmic p65 ratio, rep 1": 1.26, "nuclear/cytoplasmic p65 ratio, rep 2": 1.21, "low cell count flag": "fewer than 50 cells per well; well left out of scoring"}

Results, from the first entry:
{"gene": "Or9g19", "p65 translocation robust z-score": -0.53, "nuclear/cytoplasmic p65 ratio, rep 1": 1.66, "nuclear/cytoplasmic p65 ratio, rep 2": 1.43, "low cell count flag": "enough cells to score"}
{"gene": "Aida", "nuclear/cytoplasmic p65 ratio, rep 1": 1.26, "nuclear/cytoplasmic p65 ratio, rep 2": 1.21, "low cell count flag": "fewer than 50 cells per well; well left out of scoring"}
{"gene": "Or5b12b", "p65 translocation robust z-score": -0.84, "nuclear/cytoplasmic p65 ratio, rep 1": 1.51, "nuclear/cytoplasmic p65 ratio, rep 2": 1.29, "low cell count flag": "enough cells to score"}
{"gene": "Scfd2", "p65 translocation robust z-score": 0.96, "nuclear/cytoplasmic p65 ratio, rep 1": 1.55, "nuclear/cytoplasmic p65 ratio, rep 2": 1.32, "low cell count flag": "enough cells to score"}
{"gene": "Insig1", "p65 translocation robust z-score": -0.94, "nuclear/cytoplasmic p65 ratio, rep 1": 1.29, "nuclear/cytoplasmic p65 ratio, rep 2": 1.32, "low cell count flag": "enough cells to score"}
{"gene": "Cdcp1", "p65 translocation robust z-score": 0.66, "nuclear/cytoplasmic p65 ratio, rep 1": 1.56, "nuclear/cytoplasmic p65 ratio, rep 2": 1.44, "low cell count flag": "enough cells to score"}
{"gene": "Igdcc3", "p65 translocation robust z-score": 0.77, "nuclear/cytoplasmic p65 ratio, rep 1": 1.66, "nuclear/cytoplasmic p65 ratio, rep 2": 1.59, "low cell count flag": "enough cells to score"}
{"gene": "Ndufc1", "p65 translocation robust z-score": -0.89, "nuclear/cytoplasmic p65 ratio, rep 1": 1.63, "nuclear/cytoplasmic p65 ratio, rep 2": 1.47, "low cell count flag": "enough cells to score"}
{"gene": "Asic2", "p65 translocation robust z-score": -0.73, "nuclear/cytoplasmic p65 ratio, rep 1": 1.52, "nuclear/cytoplasmic p65 ratio, rep 2": 1.55, "low cell count flag": "enough cells to score"}
{"gene": "Cd3g", "p65 translocation robust z-score": 0.03, "nuclear/cytoplasmic p65 ratio, rep 1": 1.46, "nuclear/cytoplasmic p65 ratio, rep 2": 1.39, "low cell count flag": "enough cells to score"}
{"gene": "Vezt", "p65 translocation robust z-score": 0.42, "nuclear/cytoplasmic p65 ratio, rep 1": 1.67, "nuclear/cytoplasmic p65 ratio, rep 2": 1.74, "low cell count flag": "enough cells to score"}
{"gene": "Or52n20", "p65 translocation robust z-score": -0.86, "nuclear/cytoplasmic p65 ratio, rep 1": 1.29, "nuclear/cytoplasmic p65 ratio, rep 2": 1.2, "low cell count flag": "enough cells to score"}
{"gene": "Sox8", "p65 translocation robust z-score": -0.46, "nuclear/cytoplasmic p65 ratio, rep 1": 1.4, "nuclear/cytoplasmic p65 ratio, rep 2": 1.57, "low cell count flag": "enough cells to score"}
{"gene": "Srsf12", "p65 translocation robust z-score": 2.6, "nuclear/cytoplasmic p65 ratio, rep 1": 1.58, "nuclear/cytoplasmic p65 ratio, rep 2": 1.52, "low cell count flag": "enough cells to score"}
